Assay results reported in PMC12396398.
No constants are given. Whether binding was seen depends on the method and setting. Binding seen in cells or lysates may run through a third protein. Some results given as binding are weak or reduced against the parent protein; the word gives no strength.

The chains behind the UniProt entries cited, without tags or fusion partners.
UniProt P40763: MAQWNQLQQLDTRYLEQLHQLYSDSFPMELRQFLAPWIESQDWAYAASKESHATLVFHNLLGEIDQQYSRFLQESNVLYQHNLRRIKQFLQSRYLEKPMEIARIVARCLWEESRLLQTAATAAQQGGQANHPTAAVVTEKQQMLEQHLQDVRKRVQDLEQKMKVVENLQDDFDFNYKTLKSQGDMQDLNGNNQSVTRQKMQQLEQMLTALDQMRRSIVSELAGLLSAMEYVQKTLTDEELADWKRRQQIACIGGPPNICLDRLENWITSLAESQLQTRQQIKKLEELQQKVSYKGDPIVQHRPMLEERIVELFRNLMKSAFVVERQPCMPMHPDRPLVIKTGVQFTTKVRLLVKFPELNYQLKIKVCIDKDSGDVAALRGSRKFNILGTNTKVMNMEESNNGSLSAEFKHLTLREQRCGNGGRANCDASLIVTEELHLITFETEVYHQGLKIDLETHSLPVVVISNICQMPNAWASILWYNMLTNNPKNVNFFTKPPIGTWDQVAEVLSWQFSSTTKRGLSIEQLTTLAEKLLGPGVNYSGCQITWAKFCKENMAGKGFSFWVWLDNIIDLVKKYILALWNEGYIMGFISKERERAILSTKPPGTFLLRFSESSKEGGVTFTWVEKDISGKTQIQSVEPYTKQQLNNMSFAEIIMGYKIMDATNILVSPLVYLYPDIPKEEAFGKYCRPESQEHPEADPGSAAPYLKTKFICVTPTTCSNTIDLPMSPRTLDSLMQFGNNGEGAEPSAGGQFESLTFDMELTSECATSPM

Legend:
[1] = target: Jak2 (human (endogenous in HT29 and RKO)) (UniProt O60674); experiment: co-IP; lysates of HT29 and RKO cells in NP-40 lysis buffer, pre-cleared with protein A/G beads, primary antibody then fresh beads, Western blot; which protein was precipitated is not told
[2] = target: Stat3 (human (endogenous in HT29 and RKO)) (UniProt P40763); experiment: as above
Jak2 545-848 aa fragment = target: T1, Jak2 545-848 aa fragment (UniProt O60674); experiment: co-IP; Jak2 segments made according to the domains of Jak2, co-IP with Prkci; cells and tags not told
T1 sequence: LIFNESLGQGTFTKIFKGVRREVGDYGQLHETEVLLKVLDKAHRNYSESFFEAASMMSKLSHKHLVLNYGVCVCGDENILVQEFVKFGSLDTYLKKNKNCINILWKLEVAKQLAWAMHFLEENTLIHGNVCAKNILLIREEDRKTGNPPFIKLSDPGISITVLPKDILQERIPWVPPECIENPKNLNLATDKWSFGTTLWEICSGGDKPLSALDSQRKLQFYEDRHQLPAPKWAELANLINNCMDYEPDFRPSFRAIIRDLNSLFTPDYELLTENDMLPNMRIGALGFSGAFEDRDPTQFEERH

B1: Protein kinase C iota (Prkci) (enzyme, UniProt P41743 1-596)
chain: MPTQRDSSTMSHTVAGGGSGDHSHQVRVKAYYRGDIMITHFEPSISFEGLCNEVRDMCSFDNEQLFTMKWIDEEGDPCTVSSQLELEEAFRLYELNKDSELLIHVFPCVPERPGMPCPGEDKSIYRRGARRWRKLYCANGHTFQAKRFNRRAHCAICTDRIWGLGRQGYKCINCKLLVHKKCHKLVTIECGRHSLPQEPVMPMDQSSMHSDHAQTVIPYNPSSHESLDQVGEEKEAMNTRESGKASSSLGLQDFDLLRVIGRGSYAKVLLVRLKKTDRIYAMKVVKKELVNDDEDIDWVQTEKHVFEQASNHPFLVGLHSCFQTESRLFFVIEYVNGGDLMFHMQRQRKLPEEHARFYSAEISLALNYLHERGIIYRDLKLDNVLLDSEGHIKLTDYGMCKEGLRPGDTTSTFCGTPNYIAPEILRGEDYGFSVDWWALGVLMFEMMAGRSPFDIVGSSDNPDQNTEDYLFQVILEKQIRIPRSLSVKAASVLKSFLNKDPKERLGCHPQTGFADIQGHPFFRNVDWDMMEQKQVVPPFKPNISGEFGLDNFDSQFTNEPVQLTPDDDDIVRKIDQSEFEGFEYINPLLMSAEECV
[1]
  binding: binds
[2]
  binding: no binding
Jak2 545-848 aa fragment
  binding: binds
